For at least one compound, name, drawing or mass did not settle the structure.
System: cerebral ischemia reperfusion model of middle cerebral artery occlusion (MCAO)
Assay: Cerebral ischemia reperfusion model of middle cerebral artery occlusion (MCAO), suture method
Assay type: in vivo, SD rats
Settings: nimodipine group (0.4 mg/kg)
Procedure: Cerebral ischemia reperfusion model of middle cerebral artery occlusion (MCAO) was established in SD rats using the suture method of internal carotid artery. Test rats were administrated once 0.5 hours after ischemia reperfusion, then once every 2 hours, for totally three times. Neurological defect symptoms were observed 48 hours after cerebral ischemia.

Structure (SMILES): COCCOC(=O)C1=C(C)NC(C)=C(C(=O)OC(C)C)C1c1cccc([N+](=O)[O-])c1 (centres unmarked) [Nimodipine, nimodipine, reference compound]
- neurological defect symptoms compared with the model group (Table 4 series, P<0.001): significantly reduced
- neurological defect symptoms compared with the model group (Table 7 series, P<0.001): significantly relieved
- cerebral infarction area compared with the model group (P<0.001): significantly reduced
- SOD activity compared with the model group (P=0.435): No obvious difference
- MDA content compared with the model group (P=0.961): No obvious difference
